Measured values published in patent US9387219B2, “Edible composition” (Conopco, Inc., priority 2011, dated 2016).
For at least one compound, name, drawing or mass did not settle the structure.

Target: T1, SGLT1 (Homo sapiens, UniProt P13866)
T1 construct: endogenous in cells; host or cells: differentiated Caco-2 cell monolayers (ATCC)
T1 sequence (P13866 1-664): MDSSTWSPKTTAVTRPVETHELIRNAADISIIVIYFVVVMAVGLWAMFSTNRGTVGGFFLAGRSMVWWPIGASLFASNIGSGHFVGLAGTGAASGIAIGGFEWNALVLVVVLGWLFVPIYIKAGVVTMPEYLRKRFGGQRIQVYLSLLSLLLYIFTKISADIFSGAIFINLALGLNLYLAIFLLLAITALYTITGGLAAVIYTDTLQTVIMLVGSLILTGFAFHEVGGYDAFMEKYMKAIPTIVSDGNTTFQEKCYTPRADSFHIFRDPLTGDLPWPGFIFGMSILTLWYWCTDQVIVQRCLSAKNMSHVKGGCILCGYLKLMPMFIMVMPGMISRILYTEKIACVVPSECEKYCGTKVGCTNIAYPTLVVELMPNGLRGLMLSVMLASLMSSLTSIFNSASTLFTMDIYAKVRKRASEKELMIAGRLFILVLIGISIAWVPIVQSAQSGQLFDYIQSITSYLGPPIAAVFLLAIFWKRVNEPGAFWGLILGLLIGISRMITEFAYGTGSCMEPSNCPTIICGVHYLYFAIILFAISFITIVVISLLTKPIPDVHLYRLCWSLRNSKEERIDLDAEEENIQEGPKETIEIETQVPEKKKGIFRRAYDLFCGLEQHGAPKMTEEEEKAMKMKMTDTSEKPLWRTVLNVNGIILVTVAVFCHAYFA
Assay: Glucose transport inhibitor cell screening assay, 5 mM D-glucose for 15 minutes (SGLT1 inhibition)
Assay type: cell-based
Settings: assigned from % inhibition at 5 mM and 25 mM D-glucose in Caco-2 cells
Method: Human epithelial colorectal adenocarcinoma (Caco-2) cells were obtained from the American Type Culture Collection (ATCC) and cultured in Growth Medium consisting of Dulbecco's modified Eagle's medium (containing Glutamax-1, 4.5 g/L D-glucose and 25 mM 4-(2-hydroxyethyl)-1-piperazine ethanesulphonic acid (Hepes) (Invitrogen)), 10% foetal bovine serum (Sigma), 1% non-essential amino acids (Invitrogen) and 1 mM sodium pyruvate (Sigma)). The cells were routinely passaged at approximately 80% confluence using TrypLE™ Express Stable Trypsin-Like Enzyme (Invitrogen) to detach the cells, and seeded at approximately 114 cells per mm^2 in fresh tissue culture flasks. Only cells between the passage numbers 45 and 49 were used for experiments. […]
Differentiated cell monolayers were washed gently in Dulbecco's Phosphate Buffered Saline containing CaCl2 and MgCl2 (PBS(+) (Invitrogen)) and the inserts transferred to a new Corning® HTS Transwell®-96 well receiver plate (Sigma). […] The cell inserts were then discarded and the permeability of the membranes to Lucifer Yellow checked by measuring the fluorescence of the samples at 485 nm (excitation) and 530 nm (emission) on a Spectramax Gemini EM fluorescence microplate reader.
The amount of glucose transported across the cell monolayers was measured using a glucose assay based on Invitrogen's Amplex Red Glucose/Glucose oxidase Assay Kit. […]

COc1cc(-c2[o+]c3cc(O)cc(O)c3cc2O)cc(OC)c1O [Malvidin]
Class (assigned class of transporter inhibited): None
